No constants are given. Whether binding was seen depends on the method and setting. Some entries that bind do so weakly or less than the wild type.
Target: His-tagged MRP-14 (UniProt P06702)
Test: SPR, His-tagged MRP-14 on Ni-NTA chip

Protein sequences, listed by entry. Tags and fused reporters are not part of them.
UniProt P06702: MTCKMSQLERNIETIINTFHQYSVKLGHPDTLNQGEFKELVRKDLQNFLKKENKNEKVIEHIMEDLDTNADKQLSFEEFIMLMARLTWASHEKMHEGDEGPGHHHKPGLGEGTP

For ACNSHRHGACGGGS (C-terminal amidation; called cyclic) [MTP5 synthetic peptide …], the binding was “binds”.

With ASSHIHHGGGS (C-terminal amidation) [MTP2 synthetic peptide …] the binding was “binds”.

With HNHMADPGGGS (C-terminal amidation) [MTP3 synthetic peptide …] the binding was “binds”.

ACPTGLHHACGGGS (C-terminal amidation; called cyclic) [MTP9 synthetic peptide …] was tested, and the binding was “binds”.

— patent publication US20170348438A1 (CASE WESTERN RESERVE UNIVERSITY, published 2017)
